These are yes or no findings as the source states them, for the method shown. Binding seen in cells or lysates may run through a third protein. Some entries that bind do so weakly or less than the wild type. Where a sequence is shown, tags or fusion partners need not be part of it.

Chains of the proteins cited; added tags and fusions are not shown. Lines headed by an entry give the natural chain unless they say otherwise; changes in a name come on top. A line that says so, or that is headed by a name, gives the form on record, which may keep a tag or linker.
Strep-GFP-tagged TSC2 (P49815, form named): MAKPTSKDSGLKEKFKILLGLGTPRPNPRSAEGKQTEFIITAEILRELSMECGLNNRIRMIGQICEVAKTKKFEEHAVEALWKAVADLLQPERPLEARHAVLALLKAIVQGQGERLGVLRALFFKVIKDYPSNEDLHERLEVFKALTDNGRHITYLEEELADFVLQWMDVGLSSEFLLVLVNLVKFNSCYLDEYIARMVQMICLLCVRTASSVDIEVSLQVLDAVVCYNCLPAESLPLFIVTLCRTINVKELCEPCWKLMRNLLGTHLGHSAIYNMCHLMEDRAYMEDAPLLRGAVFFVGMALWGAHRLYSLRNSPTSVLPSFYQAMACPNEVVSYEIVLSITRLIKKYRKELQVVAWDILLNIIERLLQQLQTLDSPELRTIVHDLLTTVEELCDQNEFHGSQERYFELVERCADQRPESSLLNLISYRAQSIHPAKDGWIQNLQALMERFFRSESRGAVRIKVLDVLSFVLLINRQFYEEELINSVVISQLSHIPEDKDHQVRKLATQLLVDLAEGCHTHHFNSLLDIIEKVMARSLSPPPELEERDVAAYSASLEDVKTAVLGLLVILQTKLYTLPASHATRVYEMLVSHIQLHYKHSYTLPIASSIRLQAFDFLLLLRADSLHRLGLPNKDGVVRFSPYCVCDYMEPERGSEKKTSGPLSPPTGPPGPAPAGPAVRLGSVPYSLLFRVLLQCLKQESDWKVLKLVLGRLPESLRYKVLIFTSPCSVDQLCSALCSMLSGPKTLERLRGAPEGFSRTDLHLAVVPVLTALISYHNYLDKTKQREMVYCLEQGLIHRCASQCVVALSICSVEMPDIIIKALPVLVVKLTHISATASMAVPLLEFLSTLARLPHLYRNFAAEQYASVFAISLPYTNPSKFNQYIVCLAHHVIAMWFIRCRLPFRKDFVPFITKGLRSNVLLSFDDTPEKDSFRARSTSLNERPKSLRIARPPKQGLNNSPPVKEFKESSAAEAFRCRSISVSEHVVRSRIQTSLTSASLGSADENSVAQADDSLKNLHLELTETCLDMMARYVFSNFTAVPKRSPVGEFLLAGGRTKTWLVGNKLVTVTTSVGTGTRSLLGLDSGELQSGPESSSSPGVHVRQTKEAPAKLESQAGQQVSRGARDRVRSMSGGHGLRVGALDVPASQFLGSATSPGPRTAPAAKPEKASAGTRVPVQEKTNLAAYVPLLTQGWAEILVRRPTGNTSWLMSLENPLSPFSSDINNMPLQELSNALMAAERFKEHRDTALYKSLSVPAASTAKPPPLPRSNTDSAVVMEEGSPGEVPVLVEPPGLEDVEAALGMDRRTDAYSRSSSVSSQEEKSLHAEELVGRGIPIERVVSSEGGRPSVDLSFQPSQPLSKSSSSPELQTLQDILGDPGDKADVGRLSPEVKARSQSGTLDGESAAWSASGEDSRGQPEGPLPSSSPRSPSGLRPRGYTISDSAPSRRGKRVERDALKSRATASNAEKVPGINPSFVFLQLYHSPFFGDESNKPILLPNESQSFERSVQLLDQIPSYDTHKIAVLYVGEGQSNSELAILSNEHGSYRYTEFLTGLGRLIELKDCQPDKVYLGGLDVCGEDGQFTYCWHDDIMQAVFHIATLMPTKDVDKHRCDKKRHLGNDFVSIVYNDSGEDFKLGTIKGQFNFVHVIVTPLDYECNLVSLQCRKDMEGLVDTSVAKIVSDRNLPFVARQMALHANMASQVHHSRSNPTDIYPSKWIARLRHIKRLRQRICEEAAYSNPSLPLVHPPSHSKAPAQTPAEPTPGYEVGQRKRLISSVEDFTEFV

The source of these data is PMC11787510.

The target in this assay is Strep-GFP-tagged TSC2 (UniProt P49815). As to the kind of experiment: co-IP; lysate with Strep-GFP-TSC2 mixed with lysate with TSC1-myc and HiBiT-Rheb, without or with 5.5 μM His-CaM (WT or DA) and 100 μM CaCl2; IP with anti-GFP antibody, Western blot with myc and anti-GFP antibodies.

B1: myc-tagged TSC1 (protein, UniProt Q92574 1-1164)
chain: MAQQANVGELLAMLDSPMLGVRDDVTAVFKENLNSDRGPMLVNTLVDYYLETSSQPALHILTTLQEPHDKHLLDRINEYVGKAATRLSILSLLGHVIRLQPSWKHKLSQAPLLPSLLKCLKMDTDVVVLTTGVLVLITMLPMIPQSGKQHLLDFFDIFGRLSSWCLKKPGHVAEVYLVHLHASVYALFHRLYGMYPCNFVSFLRSHYSMKENLETFEEVVKPMMEHVRIHPELVTGSKDHELDPRRWKRLETHDVVIECAKISLDPTEASYEDGYSVSHQISARFPHRSADVTTSPYADTQNSYGCATSTPYSTSRLMLLNMPGQLPQTLSSPSTRLITEPPQATLWSPSMVCGMTTPPTSPGNVPPDLSHPYSKVFGTTAGGKGTPLGTPATSPPPAPLCHSDDYVHISLPQATVTPPRKEERMDSARPCLHRQHHLLNDRGSEEPPGSKGSVTLSDLPGFLGDLASEEDSIEKDKEEAAISRELSEITTAEAEPVVPRGGFDSPFYRDSLPGSQRKTHSAASSSQGASVNPEPLHSSLDKLGPDTPKQAFTPIDLPCGSADESPAGDRECQTSLETSIFTPSPCKIPPPTRVGFGSGQPPPYDHLFEVALPKTAHHFVIRKTEELLKKAKGNTEEDGVPSTSPMEVLDRLIQQGADAHSKELNKLPLPSKSVDWTHFGGSPPSDEIRTLRDQLLLLHNQLLYERFKRQQHALRNRRLLRKVIKAAALEEHNAAMKDQLKLQEKDIQMWKVSLQKEQARYNQLQEQRDTMVTKLHSQIRQLQHDREEFYNQSQELQTKLEDCRNMIAELRIELKKANNKVCHTELLLSQVSQKLSNSESVQQQMEFLNRQLLVLGEVNELYLEQLQNKHSDTTKEVEMMKAAYRKELEKNRSHVLQQTQRLDTSQKRILELESHLAKKDHLLLEQKKYLEDVKLQARGQLQAAESRYEAQKRITQVFELEILDLYGRLEKDGLLKKLEEEKAEAAEAAEERLDCCNDGCSDSMVGHNEEASGHNGETKTPRPSSARGSSGSRGGGGSSSSSSELSTPEKPPHQRAGPFSSRWETTMGEASASIPTTVGSLPSSKSFLGMKARELFRNKSESQCDEDGMTSSLSESLKTELGKDLGVEAKIPLNLDGPHPSPPTPDSVGQLHIMDYNETHHEHS
As to B1, the binding result is on record as “binds”.
